The data set deals with T1, YtrASa (Sulfolobus acidocaldarius) (UniProt Q4J7S4).
T1 sequence (looked up, limits assumed): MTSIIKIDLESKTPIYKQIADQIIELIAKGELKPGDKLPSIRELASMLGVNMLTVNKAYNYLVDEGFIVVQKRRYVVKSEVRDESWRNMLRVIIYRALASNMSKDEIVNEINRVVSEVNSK
The data set can be described thus: EMSA. The settings on record: 20 mM Tris-HCl pH 8.0, 1 mM MgCl2, 0.1 mM DTT, 12.5% glycerol, 50 mM NaCl, 0.4 mM EDTA, 37 C, ~0.1 nM 32P-DNA, excess non-specific competitor DNA, 6% native PAGE, recombinant protein, protein details: C-terminal His, label: 32P. On the technique in general: In EMSA bound probe runs differently from free probe, usually more slowly.

For at least one entry, the source does not settle the construct or the ends of the probe. The comparison behind a weaker result is the experiment's own reference, which may not be listed here. Where a protein sequence is shown, tags need not be part of it. At least one verdict rests on a figure or table, not on a statement of the authors.

Turning to “TATTCCCCTAAATCAGCGCTTTGCTATATGACAAGGCGCATAAAAATCGACCTA (double strand) [MUT D (both secondary half sites mutated)]”, under “strong decrease, KDapp in figure only”, the binding result is given as “binds more weakly”. In the case of “TATTCCCCTAAATCATATATCCTCTATATGATCCGTATAATAAAAATCGACCTA (double strand) [MUT B (primary half sites mutated)]”, the binding result (larger effect than MUT C, KDapp in figure only) is listed as “binds more weakly”. In the case of “TATTCCCCTAAATCATATATCCTCTGCCGGATCCGTATAATAAAAATCGACCTA (double strand) [MUT A (Leftprim, Middleprim, Rightprim mutated)]”, the binding result (almost entirely abrogated, KDapp in figure only) is on record as “binds more weakly”. As for “TATTCCCCTAAATCATATATTTGCTATATGACAAGTATAATAAAAATCGACCTA (double strand) [WT ytrASa binding site (50-bp probe)]”, for the setting “KDapp printed in figure only”, the binding result is reported as “binds”. Turning to “TATTCCCCTAAATCATATATTTGCTGCCGGACAAGTATAATAAAAATCGACCTA (double strand) [MUT C (Middleprim mutated)]”, the binding result (smaller effect than MUT B, KDapp in figure only) was “binds more weakly”.
